Here are results for seven substances from US8053415B2 (Washington University in St. Louis, priority 2005, dated 2011).

For some assays here: Strings that start with PEPTIDE1 are HELM notation: dots part the residues, brackets hold end groups and non-standard residues.

Data set [1] can be described thus: general procedure: Fmoc solid-phase peptide synthesis; Wang resin pre-loaded with Fmoc-Lys-OH; Rink amide MBHA resin (0.4 mmol/g); 2-chlorotrityl resin for cyclic lactam pepti; HBTU/HOBt/DIEA. As to conditions: for isolated mass / isolated yield: whole synthesis.
Data set [2] can be described thus: general procedure: Fmoc solid-phase peptide synthesis; Fmoc-Val-2-chlorotrityl resin; HBTU/HOBt/DIEA. Particulars: whole synthesis, scale of the general procedure 25 μmol.

In data set [1] (scale 25-μmol), PEPTIDE1{[DOTA].G.R.D.S.P.K}$$$$V2.0 yielded an isolated mass of 9.2 mg and an isolated yield of 35%.
Consider Cypate-GRDSPK, for which, in data set [1] (scale 25 umol), the isolated mass was 8.1 mg and the isolated yield is listed as 25.6% isolated yield.
The like results for Cypate-GRGDPK were, in that order, 6.4 mg and 19.4% isolated yield.
For the substance “H-Lys(Dde)-Arg(Pbf)-Gly-Asp(Obu^t)-Dphe-Val-OH”, in data set [2], the crude yield is listed as 60%.
As to “PEPTIDE1{K.R.G.D.[dF].V}|CHEM1{[Cypate]}$PEPTIDE1,PEPTIDE1,1:R1-6:R2|PEPTIDE1,CHEM1,1:R3-1:R2$$$V2.0”, the conjugation yield in data set [1] (conjugation step) came out at 12%.
The substance “Cyclo[Arg(Pbf)-Gly-Asp(Obu^t)-Dphe-Val-Lys]” yielded a cyclisation yield in data set [1] (cyclisation step) of 23%.
In data set [1] (scale 25 umol), “Cypate-3-GRDSPK (cypate conjugate; (1)..(1) CYPATE-3 DYE ATTACHED; listed as Homo sapiens)” came in with an isolated mass of 5.2 mg and an isolated yield of 16.8% isolated yield.
